Measurements taken from article PMC10039855.
Results are given in words; binding and its absence hold for the method and conditions named. Binding seen in cells or lysates may run through a third protein. Some results given as binding are weak or reduced against the parent protein; the word gives no strength. For some of these results: Where a sequence is shown, tags or fusion partners need not be part of it. Blank lines part the entries; values can stand above or below the molecule they belong to.

Protein sequences, listed by entry. Tags and fused reporters are not part of them.
UniProt Q96NG8: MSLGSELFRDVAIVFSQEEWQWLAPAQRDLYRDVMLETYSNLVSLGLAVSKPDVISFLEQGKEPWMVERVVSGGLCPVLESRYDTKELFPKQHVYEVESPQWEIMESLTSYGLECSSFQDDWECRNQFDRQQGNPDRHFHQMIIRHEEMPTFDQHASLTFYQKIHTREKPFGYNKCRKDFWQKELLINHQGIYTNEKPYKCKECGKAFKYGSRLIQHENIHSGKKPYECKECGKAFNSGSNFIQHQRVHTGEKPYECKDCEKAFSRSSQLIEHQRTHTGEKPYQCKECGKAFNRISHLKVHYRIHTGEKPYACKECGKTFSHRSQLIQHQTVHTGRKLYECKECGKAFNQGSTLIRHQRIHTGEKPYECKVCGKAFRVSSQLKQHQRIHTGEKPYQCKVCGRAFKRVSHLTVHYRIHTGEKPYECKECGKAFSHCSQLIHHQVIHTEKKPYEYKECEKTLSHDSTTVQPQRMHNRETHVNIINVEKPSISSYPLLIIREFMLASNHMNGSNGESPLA
UniProt P28482: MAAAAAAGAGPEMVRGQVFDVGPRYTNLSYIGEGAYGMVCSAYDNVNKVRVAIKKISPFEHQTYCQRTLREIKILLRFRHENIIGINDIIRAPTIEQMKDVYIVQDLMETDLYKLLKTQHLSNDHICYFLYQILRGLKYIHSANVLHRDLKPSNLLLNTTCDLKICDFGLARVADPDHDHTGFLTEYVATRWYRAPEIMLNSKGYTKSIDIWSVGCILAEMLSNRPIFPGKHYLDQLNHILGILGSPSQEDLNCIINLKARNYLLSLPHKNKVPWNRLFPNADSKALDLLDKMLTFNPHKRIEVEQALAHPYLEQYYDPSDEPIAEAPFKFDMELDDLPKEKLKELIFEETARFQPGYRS

Legend:
[1] = target: T1, TJP2, overexpressed with 3x Flag (UniProt Q9UDY2); experiment: co-IP; anti-Flag M2 magnetic beads added to the supernatant of OSRC2 or Caki-1 cell lysates (IP lysis buffer), overnight at 4 °C, washed three times with lysis buffer; Western Blot; overexpression group against control group
T1 sequence: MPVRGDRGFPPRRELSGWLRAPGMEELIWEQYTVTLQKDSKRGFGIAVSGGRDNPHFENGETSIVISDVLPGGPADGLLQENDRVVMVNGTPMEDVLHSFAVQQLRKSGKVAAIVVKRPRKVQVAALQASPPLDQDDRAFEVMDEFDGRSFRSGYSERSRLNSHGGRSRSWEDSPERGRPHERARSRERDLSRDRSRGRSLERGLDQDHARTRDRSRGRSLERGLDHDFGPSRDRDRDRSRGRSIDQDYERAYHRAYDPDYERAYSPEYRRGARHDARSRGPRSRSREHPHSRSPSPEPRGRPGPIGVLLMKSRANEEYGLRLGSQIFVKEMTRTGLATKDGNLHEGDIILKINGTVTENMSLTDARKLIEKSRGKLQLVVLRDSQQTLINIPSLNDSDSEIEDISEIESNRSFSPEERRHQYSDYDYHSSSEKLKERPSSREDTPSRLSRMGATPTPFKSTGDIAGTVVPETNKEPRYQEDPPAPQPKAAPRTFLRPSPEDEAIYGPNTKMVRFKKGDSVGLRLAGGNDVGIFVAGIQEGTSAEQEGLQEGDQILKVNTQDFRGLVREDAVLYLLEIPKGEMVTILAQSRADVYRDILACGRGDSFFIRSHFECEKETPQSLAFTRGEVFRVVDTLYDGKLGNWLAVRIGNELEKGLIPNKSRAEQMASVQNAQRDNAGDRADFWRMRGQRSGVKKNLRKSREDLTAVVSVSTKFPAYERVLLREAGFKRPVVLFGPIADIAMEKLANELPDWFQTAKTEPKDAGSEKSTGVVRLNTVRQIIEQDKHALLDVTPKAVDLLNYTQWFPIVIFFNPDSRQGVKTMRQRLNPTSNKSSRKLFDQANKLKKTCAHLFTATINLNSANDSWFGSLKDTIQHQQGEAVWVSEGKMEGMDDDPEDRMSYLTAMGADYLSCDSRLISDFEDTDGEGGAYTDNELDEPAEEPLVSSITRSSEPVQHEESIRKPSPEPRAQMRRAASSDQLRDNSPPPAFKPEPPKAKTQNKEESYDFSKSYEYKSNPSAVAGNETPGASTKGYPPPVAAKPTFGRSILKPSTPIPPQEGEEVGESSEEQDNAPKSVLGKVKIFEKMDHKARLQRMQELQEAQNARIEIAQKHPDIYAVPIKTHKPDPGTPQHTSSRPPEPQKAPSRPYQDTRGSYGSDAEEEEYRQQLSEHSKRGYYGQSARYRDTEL

[2] = target: Zinc finger protein 582 (ZNF582), overexpressed with 3x Flag (UniProt Q96NG8); experiment: as above

- binding [1]: binds
Molecule: ZNF582 protein, endogenous in ccRCC cells (from UniProt Q96NG8 1-517)

- binding [1]: binds
- binding [2]: binds
Molecule: ERK2 protein, endogenous in ccRCC cells (from UniProt P28482 1-360)

- binding [2]: binds
B1: TJP2 protein, endogenous in ccRCC cells (protein, UniProt Q9UDY2 1-1190)
chain: T1 sequence
